Test results: publication PMC11594562 (International Journal of Molecular Sciences, 2024)

Test: general procedure: Fmoc solid-phase peptide synthesis; Rink Amide MBHA resin (0.78 mmol/g); N,N′-diisopropylcarbodiimide/Oxyma Pure; HATU/DIPEA for the hydrazinoacetic acid
[1] = conjugation step, Analytical HPLC (C18)
[2] = whole synthesis, Analytical HPLC (C18)

HELM PEPTIDE1{[Cc1nn(CC(=O)[*:2])c2c1C(=O)[C@@]1(C)C(=C2)Oc2c3c(c(C)c(O)c21)O/C(=C\c1ccc(Br)cc1)C3=O].I.K.K.I.L.S.K.I.K.K.L.L.K.[am]}$$$$V2.0 (SMILES CC[C@H](C)[C@H](NC(=O)Cn1nc(C)c2c1C=C1Oc3c4c(c(C)c(O)c3[C@@]1(C)C2=O)O/C(=C\c1ccc(Br)cc1)C4=O)C(=O)N[C@@H](CCCCN)C(=O)N[C@@H](CCCCN)C(=O)N[C@H](C(=O)N[C@@H](CC(C)C)C(=O)N[C@@H](CO)C(=O)N[C@@H](CCCCN)C(=O)N[C@H](C(=O)N[C@@H](CCCCN)C(=O)N[C@@H](CCCCN)C(=O)N[C@@H](CC(C)C)C(=O)N[C@@H](CC(C)C)C(=O)N[C@@H](CCCCN)C(N)=O)[C@@H](C)CC)[C@@H](C)CC)
conjugation yield (conjugation step): 63% | final HPLC purity [1]: 94%

HELM PEPTIDE1{[Cc1nn(CC(=O)[*:2])c2c1C(=O)[C@@]1(C)C(=C2)Oc2c(-c3csc(N/N=C/c4ccc(Br)cc4)n3)c(O)c(C)c(O)c21].I.K.K.I.L.S.K.I.K.K.L.L.K.[am]}$$$$V2.0 (SMILES CC[C@H](C)[C@H](NC(=O)Cn1nc(C)c2c1C=C1Oc3c(-c4csc(N/N=C/c5ccc(Br)cc5)n4)c(O)c(C)c(O)c3[C@@]1(C)C2=O)C(=O)N[C@@H](CCCCN)C(=O)N[C@@H](CCCCN)C(=O)N[C@H](C(=O)N[C@@H](CC(C)C)C(=O)N[C@@H](CO)C(=O)N[C@@H](CCCCN)C(=O)N[C@H](C(=O)N[C@@H](CCCCN)C(=O)N[C@@H](CCCCN)C(=O)N[C@@H](CC(C)C)C(=O)N[C@@H](CC(C)C)C(=O)N[C@@H](CCCCN)C(N)=O)[C@@H](C)CC)[C@@H](C)CC)
conjugation yield (conjugation step): 55% | final HPLC purity [1]: 86%

HELM PEPTIDE1{[NNCC(=O)[*:2]].I.K.K.I.L.S.K.I.K.K.L.L.K.[am]}$$$$V2.0 (SMILES CC[C@H](C)[C@H](NC(=O)CNN)C(=O)N[C@@H](CCCCN)C(=O)N[C@@H](CCCCN)C(=O)N[C@H](C(=O)N[C@@H](CC(C)C)C(=O)N[C@@H](CO)C(=O)N[C@@H](CCCCN)C(=O)N[C@H](C(=O)N[C@@H](CCCCN)C(=O)N[C@@H](CCCCN)C(=O)N[C@@H](CC(C)C)C(=O)N[C@@H](CC(C)C)C(=O)N[C@@H](CCCCN)C(N)=O)[C@@H](C)CC)[C@@H](C)CC)
isolated mass (whole synthesis): 298 mg | isolated yield (whole synthesis): 37% | crude purity (method not given) [2]: 93% | final HPLC purity [2]: 97%

L-K6 peptide amide (IKKILSKIKKLLK; N-terminal hydrazinoacetyl; C-terminal amide; printed: Ile-Lys-Lys-Ile-Leu-Ser-Lys-Ile-Lys-Lys-Leu-Leu-Lys-)
purity (crude or final not stated) [2]: 95%
